Measured values as given in paper PMC3821618.
These are yes or no findings as the source states them, for the method shown.

T1: mRuby2-BZip (rat), P05554
T1 chain: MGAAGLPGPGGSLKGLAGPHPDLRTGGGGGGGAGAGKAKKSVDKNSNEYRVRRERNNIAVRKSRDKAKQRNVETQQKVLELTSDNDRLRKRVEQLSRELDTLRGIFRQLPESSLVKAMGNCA

T2: mCherry-BZip (rat), P05554
T2 chain: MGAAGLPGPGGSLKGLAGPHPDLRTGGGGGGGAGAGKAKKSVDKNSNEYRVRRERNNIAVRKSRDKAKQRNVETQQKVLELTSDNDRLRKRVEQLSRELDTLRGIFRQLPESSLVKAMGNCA


Assays:
[1] = target: T1, mRuby2-BZip (rat), P05554; assay: fluorescence correlation spectroscopy (FCS), molecular brightness analysis; live transfected mouse GHFT1 cells, cytosol; molecular brightness Mb = CPS/(N*Po) from one-component autocorrelation fits, compared with published intrinsic brightness and between FP alone and FP-BZip; 561 nm excitation, 36 °C, 5% CO2; settings: remark: other sources report otherwise
[2] = target: T2, mCherry-BZip (rat), P05554; assay: as above; settings: remark: other sources report otherwise

binding [1]	binding [2]	Binder
no binding	–	mRuby2-BZip, P05554 237-358 (domain or fragment) MGAAGLPGPGGSLKGLAGPHPDLRTGGGGGGGAGAGKAKKSVDKNSNEYRVRRERNNIAVRKSRDKAKQRNVETQQKVLELTSDNDRLRKRVEQLSRELDTLRGIFRQLPESSLVKAMGNCA
–	no binding	mCherry-BZip, P05554 237-358 (domain or fragment) MGAAGLPGPGGSLKGLAGPHPDLRTGGGGGGGAGAGKAKKSVDKNSNEYRVRRERNNIAVRKSRDKAKQRNVETQQKVLELTSDNDRLRKRVEQLSRELDTLRGIFRQLPESSLVKAMGNCA
